Test results: paper PMC4114980

What was measured:
Assay in all cases: far-Western, overlay or dot blot; GST fusion proteins fractionated by SDS-PAGE and blotted to nitrocellulose; incubated overnight at room temperature with 5 µg/ml bovine tubulin polymerized with 1 mM GTP and 20 µM taxol in PEMF buffer; bound microtubules detected with anti-tubulin antibody; both purified
[1] = target: T1, Chro-M (329-600), truncated COOH-terminal domain of Chromator, GST-fusion protein (Drosophila) (UniProt Q86BS3)
T1 sequence: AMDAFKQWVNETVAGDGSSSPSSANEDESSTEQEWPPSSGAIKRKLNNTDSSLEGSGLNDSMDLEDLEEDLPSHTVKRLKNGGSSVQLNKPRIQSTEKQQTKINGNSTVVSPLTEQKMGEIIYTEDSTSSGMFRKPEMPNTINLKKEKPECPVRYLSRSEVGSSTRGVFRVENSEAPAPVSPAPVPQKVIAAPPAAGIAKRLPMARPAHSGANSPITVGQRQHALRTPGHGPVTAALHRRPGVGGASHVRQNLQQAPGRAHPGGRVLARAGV

[2] = target: T2, Chro-NTD (1–346), NH2-terminal domain of Chromator, GST-fusion protein (Drosophila) (UniProt Q86BS3)
T2 sequence: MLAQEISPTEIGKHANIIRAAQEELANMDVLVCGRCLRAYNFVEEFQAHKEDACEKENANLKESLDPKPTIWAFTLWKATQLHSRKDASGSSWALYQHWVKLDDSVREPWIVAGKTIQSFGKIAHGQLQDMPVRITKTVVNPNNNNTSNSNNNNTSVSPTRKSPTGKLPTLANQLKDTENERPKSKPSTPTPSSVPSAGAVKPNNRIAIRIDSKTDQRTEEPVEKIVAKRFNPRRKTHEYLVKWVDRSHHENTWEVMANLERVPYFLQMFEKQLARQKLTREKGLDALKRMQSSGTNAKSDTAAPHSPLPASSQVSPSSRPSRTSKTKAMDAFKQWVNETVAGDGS

[3] = target: T3, Chro-CTD (329–926), COOH-terminal domain of Chromator, GST-fusion protein (Drosophila) (UniProt Q86BS3)
T3 sequence: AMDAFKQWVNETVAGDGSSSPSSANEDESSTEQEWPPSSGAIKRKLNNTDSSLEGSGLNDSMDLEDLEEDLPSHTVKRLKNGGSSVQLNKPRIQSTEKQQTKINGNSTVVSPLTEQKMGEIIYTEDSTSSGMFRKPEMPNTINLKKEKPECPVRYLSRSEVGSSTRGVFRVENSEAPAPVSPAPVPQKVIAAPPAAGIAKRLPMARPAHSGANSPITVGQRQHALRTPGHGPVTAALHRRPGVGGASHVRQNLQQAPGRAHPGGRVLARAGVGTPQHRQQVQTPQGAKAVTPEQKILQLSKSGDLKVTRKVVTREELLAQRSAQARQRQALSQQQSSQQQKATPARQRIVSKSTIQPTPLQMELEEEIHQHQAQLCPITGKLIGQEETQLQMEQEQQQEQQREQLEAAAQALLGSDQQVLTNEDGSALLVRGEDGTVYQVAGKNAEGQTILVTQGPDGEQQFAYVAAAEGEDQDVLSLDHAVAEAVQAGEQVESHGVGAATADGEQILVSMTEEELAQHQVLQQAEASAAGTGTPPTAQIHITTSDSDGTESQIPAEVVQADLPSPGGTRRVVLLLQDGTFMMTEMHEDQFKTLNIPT

[4] = target: T4, Chro-421 (601–926), truncated COOH-terminal domain of Chromator, GST-fusion protein (Drosophila) (UniProt Q86BS3)
T4 sequence: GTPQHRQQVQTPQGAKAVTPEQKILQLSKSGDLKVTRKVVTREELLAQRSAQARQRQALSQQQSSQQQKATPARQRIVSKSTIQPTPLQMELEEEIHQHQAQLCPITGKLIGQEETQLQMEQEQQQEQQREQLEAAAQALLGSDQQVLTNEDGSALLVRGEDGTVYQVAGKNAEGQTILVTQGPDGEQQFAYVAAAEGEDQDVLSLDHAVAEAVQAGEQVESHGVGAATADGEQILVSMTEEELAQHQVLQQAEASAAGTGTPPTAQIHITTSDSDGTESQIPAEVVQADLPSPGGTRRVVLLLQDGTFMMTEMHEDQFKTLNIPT

binding [1]: binds | binding [2]: no binding (tested: 5 µg/ml tubulin) | binding [3]: binds | binding [4]: no binding (tested: 5 µg/ml tubulin)
Substance: purified bovine brain tubulin (complex)

Results are given in words; binding and its absence hold for the method and conditions named. For some of these results: Binding can be weak; no strength is given. Where a sequence is shown, tags or fusion partners need not be part of it.
